These are yes or no findings as the source states them, for the method shown. Binding seen in cells or lysates may run through a third protein. Some entries that bind do so weakly or less than the wild type. Tags and fused reporters may be left off the sequences shown.

The results in this text go back to PMC8166485.

This test has as its target T1, Flag-tagged Trim35 (tripartite motif 35) (human (cDNA of human embryonic kidney 293FT cells)) (UniProt Q9UPQ4).
T1 sequence: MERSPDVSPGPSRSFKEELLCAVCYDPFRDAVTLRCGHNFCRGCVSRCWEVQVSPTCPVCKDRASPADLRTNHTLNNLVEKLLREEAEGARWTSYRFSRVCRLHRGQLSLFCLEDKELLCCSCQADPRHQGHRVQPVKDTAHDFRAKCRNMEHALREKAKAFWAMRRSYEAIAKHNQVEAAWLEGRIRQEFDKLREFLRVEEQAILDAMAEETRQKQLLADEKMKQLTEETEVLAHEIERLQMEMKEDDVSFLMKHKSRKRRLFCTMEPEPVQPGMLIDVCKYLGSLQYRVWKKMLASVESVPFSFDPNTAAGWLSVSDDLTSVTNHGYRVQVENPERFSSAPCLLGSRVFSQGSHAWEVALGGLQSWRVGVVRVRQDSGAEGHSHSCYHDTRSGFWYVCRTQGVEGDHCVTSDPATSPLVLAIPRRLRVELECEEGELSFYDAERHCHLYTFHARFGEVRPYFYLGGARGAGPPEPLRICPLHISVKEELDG
The experiment in a line: co-IP; 293FT cells transfected with Flag-tagged Trim35 or an empty vector; 48 h after transfection cell lysates subjected to IP with anti-Flag beads and immunoblotting. For orientation: In western blotting, separated proteins are transferred to a membrane and probed.

B1: CLOCK (protein, UniProt O15516 1-846)
chain: MLFTVSCSKMSSIVDRDDSSIFDGLVEEDDKDKAKRVSRNKSEKKRRDQFNVLIKELGSMLPGNARKMDKSTVLQKSIDFLRKHKEITAQSDASEIRQDWKPTFLSNEEFTQLMLEALDGFFLAIMTDGSIIYVSESVTSLLEHLPSDLVDQSIFNFIPEGEHSEVYKILSTHLLESDSLTPEYLKSKNQLEFCCHMLRGTIDPKEPSTYEYVKFIGNFKSLNSVSSSAHNGFEGTIQRTHRPSYEDRVCFVATVRLATPQFIKEMCTVEEPNEEFTSRHSLEWKFLFLDHRAPPIIGYLPFEVLGTSGYDYYHVDDLENLAKCHEHLMQYGKGKSCYYRFLTKGQQWIWLQTHYYITYHQWNSRPEFIVCTHTVVSYAEVRAERRRELGIEESLPETAADKSQDSGSDNRINTVSLKEALERFDHSPTPSASSRSSRKSSHTAVSDPSSTPTKIPTDTSTPPRQHLPAHEKMVQRRSSFSSQSINSQSVGSSLTQPVMSQATNLPIPQGMSQFQFSAQLGAMQHLKDQLEQRTRMIEANIHRQQEELRKIQEQLQMVHGQGLQMFLQQSNPGLNFGSVQLSSGNSSNIQQLAPINMQGQVVPTNQIQSGMNTGHIGTTQHMIQQQTLQSTSTQSQQNVLSGHSQQTSLPSQTQSTLTAPLYNTMVISQPAAGSMVQIPSSMPQNSTQSAAVTTFTQDRQIRFSQGQQLVTKLVTAPVACGAVMVPSTMLMGQVVTAYPTFATQQQQSQTLSVTQQQQQQSSQEQQLTSVQQPSQAQLTQPPQQFLQTSRLLHGNPSTQLILSAAFPLQQSTFPQSHHQQHQSQQQQQLSRHRTDSLPDPSKVQPQ
Consider B1, for which the binding result is on record as “binds”.
